PubChem BioAssay AID652243, Drosophila RNAi Screening Center – 2013
Screen: 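Fly regulators of androgen-dependent reporter output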 (primary screen). System: Drosophila S2R+ cells. Reagents: long dsRNA against Drosophila genes. Duration: 72 h (48 h, then 24 h hormone). Treatment: synthetic androgen R1881 at 10 nM for 24 h. Read-out: 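Firefly light from an androgen-responsive reporter and Renilla control light per well, raw and unnormalised, for each of two replicates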. Direction: firefly reporter light: higher = more light from androgen-responsive reporter; Renilla control light: higher = more constitutive control signal (cell number, transfection). Rule for the call: 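Hit when the log firefly-to-Renilla ratio dropped or increased by a fixed fold versus the mean of GFP or LacZ controls across duplicate plates; lowering cut given as 1.5 and as 3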. Calls: active = hit: reporter lowered or raised; inactive = no hit.
In all, the deposit lists about 24,000 reagents; below is a random part of those that have a named target and a result. In the full data, 246 (1%) got an active call. 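Plates not normalised; calls are printed but the firefly/Renilla ratio behind them is not deposited; fold cut for lowering reported inconsistently.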 Raw values vary from plate to plate and are shown uncorrected. A plus sign joins genes that one reagent is predicted to hit. Not stated in the record: the amount of reagent.

| gene | DRSC id | firefly reporter light, replicate 1 | firefly reporter light, replicate 2 | Renilla control light, replicate 1 | Renilla control light, replicate 2 | Call |
| --- | --- | --- | --- | --- | --- | --- |
| GstO3 (Glutathione S transferase O3) | DRSC10710 | 1.17e5 | 1.15e5 | 1.57e6 | 1.20e6 | inactive |
| Takl1 (Tak1-like 1) | DRSC13443 | 1.87e5 | 43922 | 2.62e5 | 2.09e5 | inactive |
| Takl1 (Tak1-like 1) | DRSC28251 | 5.85e5 | 6.97e5 | 9.40e5 | 1.20e6 | inactive |
| Prat (Phosphoribosylamidotransferase) | DRSC16797 | 1.00e5 | 44843 | 6.93e5 | 4.06e5 | inactive |
| app (approximated) | DRSC09159 | 52061 | 62972 | 1.38e5 | 1.43e5 | inactive |
| app (approximated) | DRSC10246 | 1.38e5 | 1.29e5 | 2.08e6 | 1.82e6 | inactive |
| app (approximated) | DRSC10526 | 2.07e5 | 2.05e5 | 2.44e6 | 2.23e6 | inactive |
| app (approximated) | DRSC25682 | 6.54e5 | 9.94e5 | 7.36e5 | 8.31e5 | inactive |
| CG7849 | DRSC04895 | 2.95e5 | 3.63e5 | 1.66e6 | 1.81e6 | inactive |
| CG7849 | DRSC26457 | 3.01e5 | 2.93e5 | 5.69e5 | 6.11e5 | inactive |
| Rhp (Rhophilin) | DRSC20279 | 6.05e5 | 4.58e5 | 4.56e6 | 3.09e6 | inactive |
| SLIRP1 + anox | DRSC20542 | 1.15e5 | 1.35e5 | 9.50e5 | 1.03e6 | inactive |
| CG34221 | DRSC06150 | 3.15e5 | 2.16e5 | 2.40e6 | 2.08e6 | inactive |
| CG2818 | DRSC00540 | 5.61e5 | 6.62e5 | 2.60e6 | 1.93e6 | inactive |
| CG11249 | DRSC11645 | 2.83e5 | 3.20e5 | 3.15e6 | 2.60e6 | inactive |
| CG11249 | DRSC39272 | – | – | – | – | inactive |
| CG11249 | DRSC39273 | – | – | – | – | inactive |
| Gorab (Golgin, RAB6 interacting) | DRSC10383 | 1.63e5 | 90227 | 1.13e6 | 7.92e5 | inactive |
| Gorab (Golgin, RAB6 interacting) | DRSC29314 | 1.25e6 | 1.20e6 | 1.24e6 | 1.52e6 | inactive |
| E23 (Early gene at 23) | DRSC00593 | 80747 | 90000 | 9.93e5 | 7.41e5 | inactive |
| E23 (Early gene at 23) | DRSC25491 | 6.83e5 | 4.71e5 | 6.42e5 | 5.65e5 | inactive |
| CG13373 | DRSC27059 | 3.48e5 | 2.64e5 | 6.55e5 | 4.75e5 | inactive |
| Spf45 | DRSC03826 | 2.17e5 | 2.05e5 | 1.71e6 | 1.51e6 | inactive |
| CG13334 | DRSC06369 | 72439 | 96192 | 1.46e6 | 1.46e6 | inactive |
| CG8303 | DRSC07140 | 57124 | 53774 | 1.32e6 | 1.32e6 | inactive |
| dmGlut (Dietary and metabolic glutamate transporter) | DRSC02835 | 6.58e5 | 9.68e5 | 1.36e6 | 1.94e6 | inactive |
| dmGlut (Dietary and metabolic glutamate transporter) | DRSC25891 | 4.73e5 | 3.09e5 | 9.81e5 | 8.15e5 | inactive |
| CG2574 | DRSC19862 | 4.52e5 | 4.10e5 | 3.11e6 | 2.80e6 | inactive |
| nrv1 (nervana 1) | DRSC03382 | 4.85e5 | 7.07e5 | 1.43e6 | 1.72e6 | inactive |
| MED21 (Mediator complex subunit 21) | DRSC37928 | 7.77e5 | 5.39e5 | 1.65e6 | 1.13e6 | inactive |
| Dop1R1 (Dopamine 1-like receptor 1) | DRSC13021 | 99764 | 81312 | 1.82e5 | 2.39e5 | inactive |
| Dop1R1 (Dopamine 1-like receptor 1) | DRSC16652 | 51424 | 37189 | 7.41e5 | 7.45e5 | inactive |
| Dop1R1 (Dopamine 1-like receptor 1) | DRSC23514 | 3.48e5 | 3.34e5 | 4.82e5 | 5.73e5 | inactive |
| CG2217 + CG42740 | DRSC14141 | 69846 | 1.22e5 | 6.97e5 | 8.34e5 | inactive |
| cyr (cypher) | DRSC18017 | 4.03e5 | 6.18e5 | 2.34e6 | 3.07e6 | inactive |
| cyr (cypher) | DRSC18018 | 2.29e5 | 3.53e5 | 2.28e6 | 3.22e6 | inactive |
| CG11251 | DRSC09825 | 1.44e5 | 1.64e5 | 1.47e6 | 1.24e6 | inactive |
| asRNA:CR43463 + Pgant35A | DRSC03557 | 4.96e5 | 4.47e5 | 2.94e6 | 2.64e6 | inactive |
| asRNA:CR43463 + Pgant35A | DRSC28249 | 3.56e5 | 5.05e5 | 7.09e5 | 1.33e6 | inactive |
| CG15546 | DRSC15084 | 2.99e5 | 2.17e5 | 1.99e6 | 2.38e6 | inactive |
| CG15546 | DRSC22831 | 4.04e5 | 6.47e5 | 1.07e6 | 2.17e6 | inactive |
| CG15546 | DRSC28899 | 4.34e5 | 3.95e5 | 1.24e6 | 1.34e6 | inactive |
| CG31676 | DRSC02387 | 1.52e5 | 1.73e5 | 1.95e6 | 2.08e6 | inactive |
| Psa (Puromycin sensitive aminopeptidase) | DRSC08152 | 1.55e6 | 1.91e6 | 1.28e6 | 1.47e6 | inactive |
| Vti1a (Vesicle transport through interaction with t-SNAREs 1a) | DRSC08563 | 1.03e6 | 9.08e5 | 1.23e6 | 1.02e6 | inactive |
| ssp5 (short spindle 5) | DRSC14955 | 66858 | 69503 | 2.76e5 | 4.66e5 | inactive |
| CG15653 | DRSC04244 | 3.21e5 | 3.45e5 | 2.03e6 | 1.62e6 | inactive |
| Pisd (Phosphatidylserine decarboxylase) | DRSC15935 | 1.16e5 | 1.02e5 | 5.03e5 | 5.49e5 | inactive |
| CG8360 | DRSC03085 | 8.02e5 | 1.03e6 | 2.23e6 | 2.62e6 | inactive |
| CG8360 | DRSC26870 | 3.81e5 | 3.04e5 | 7.33e5 | 5.53e5 | inactive |
| Axud1 (AXIN1 up-regulated 1) | DRSC00270 | 62829 | 75259 | 7.63e5 | 7.65e5 | inactive |
| Rfx | DRSC16820 | 1.42e5 | 1.05e5 | 1.73e6 | 2.48e6 | inactive |
| CG43345 + CG43346 | DRSC03164 | 9.34e5 | 1.09e6 | 2.05e6 | 2.04e6 | inactive |
| CG14013 | DRSC02344 | 34035 | 50910 | 5.60e5 | 5.47e5 | inactive |
| CG18563 | DRSC02676 | 1.21e5 | 1.34e5 | 1.55e6 | 1.90e6 | inactive |
| kune (kune-kune) | DRSC04860 | 3.25e5 | 3.70e5 | 1.96e6 | 2.31e6 | inactive |
| spn-E (spindle E) | DRSC17064 | 1.71e5 | 2.30e5 | 2.63e6 | 3.30e6 | inactive |
| dnc (dunce) | DRSC17759 | 2.21e5 | 2.22e5 | 2.60e6 | 2.81e6 | inactive |
| dnc (dunce) | DRSC17911 | 98701 | 2.01e5 | 3.78e6 | 3.78e6 | active |
| dnc (dunce) | DRSC18764 | 5.18e5 | 5.97e5 | 4.30e6 | 3.58e6 | inactive |

Records above with an active call:
| gene | DRSC id | firefly reporter light, replicate 1 | firefly reporter light, replicate 2 | Renilla control light, replicate 1 | Renilla control light, replicate 2 | Call |
| --- | --- | --- | --- | --- | --- | --- |
| dnc (dunce) | DRSC17911 | 98701 | 2.01e5 | 3.78e6 | 3.78e6 | active |
